The other results are listed elsewhere or left out.

In this experiment the target is T1, OsSMF1 (Oryza sativa, UniProt Q6ZLB0 1-436).
T1 sequence: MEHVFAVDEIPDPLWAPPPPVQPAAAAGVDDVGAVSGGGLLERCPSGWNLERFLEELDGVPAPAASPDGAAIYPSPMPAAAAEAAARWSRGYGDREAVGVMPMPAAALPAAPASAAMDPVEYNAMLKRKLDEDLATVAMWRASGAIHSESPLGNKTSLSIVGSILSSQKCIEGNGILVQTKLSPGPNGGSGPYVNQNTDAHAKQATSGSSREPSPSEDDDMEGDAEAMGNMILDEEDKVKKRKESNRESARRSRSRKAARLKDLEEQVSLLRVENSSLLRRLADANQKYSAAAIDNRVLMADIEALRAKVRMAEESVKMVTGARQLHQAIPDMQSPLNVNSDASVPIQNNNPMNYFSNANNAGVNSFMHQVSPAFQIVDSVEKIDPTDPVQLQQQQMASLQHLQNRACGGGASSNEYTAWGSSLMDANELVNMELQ
Nature of the experiment: protein-binding microarray (RPBM); PBS, 2% BSA, 51.3 ng/ul salmon testes DNA, 50 uM zinc acetate, 200 nM TF, 25 C, 1 h; high values mean tight binding. As to conditions: protein: recombinant; tags: N-terminal polyhistidine and DsRed monomer fusion (pET32a); chain copies: 2; label: CyDye5-dUTP incorporated in the synthesized complementary strand; 3' TTTTT single-stranded linker to array surface; dsDNA, one strand shown. The method in brief:
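The binding signal for each feature is its fluorescence intensity in arbitrary units. An Axon 4000B scanner was used to read a custom Agilent array that had been made double-stranded with Cy5-dUTP primer extension, blocked with 2% BSA, incubated at 25 °C for 1 h with 200 nM protein in PBS, 2% BSA, salmon testes DNA and 50 µM zinc acetate, and washed. The protein was an N-terminal polyhistidine–DsRed transcription factor fusion from E. coli BL21-CodonPlus, purified on Ni–NTA.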
“TACCTGATCAACTTTGACTAATTTTATCCATGTCATTCAGCGGAGTCACCTAGTGCAG”: the binding signal is 4780 fluorescence intensity (a.u.). As for “GTGAAATCAAGAACGTCACTCCCTATCGCTTTCTCTTCTCCGGAGTCACCTAGTGCAG”, the binding signal was 3970 fluorescence intensity (a.u.).

Regarding “TAAATCCAGACTCCGGACGGCGCAGTCGTCGTCATTCTCCCGGAGTCACCTAGTGCAG”, the binding signal is 4210 fluorescence intensity (a.u.). As for “ACTCTCACCTCCCCTCCGGCCTCCGCTCCCTTCCGCACCGCGGAGTCACCTAGTGCAG”, the binding signal is 19600 fluorescence intensity (a.u.). “ACTCGAGTACACGTATACATTGTTTGTTCCGTTTCGTGATCGGAGTCACCTAGTGCAG”: the binding signal was 8980 fluorescence intensity (a.u.). For “CTCGCAACCTGGAGTGACTGTGTGAATTTCCATGCGCATGCGGAGTCACCTAGTGCAG”, the binding signal is 4820 fluorescence intensity (a.u.). “TGCCGCCTCCACGTCCTCATTGCTGTCTCCACTCTACTGTCGGAGTCACCTAGTGCAG”: the binding signal is 19200 fluorescence intensity (a.u.). The value for “GCAGAGCTCGACCTCGTGTGTTGTCTCCCATTGCTTGGTTCGGAGTCACCTAGTGCAG” was 3670 fluorescence intensity (a.u.); that for “CGTGCTTGTCATGCACGACGTAGTACATGTACATGCCATGCGGAGTCACCTAGTGCAG” was 4250 fluorescence intensity (a.u.).

Consider “ATTAATTAGTGACAGGGAGTAGCAGGGGAAAACCAACCATCGGAGTCACCTAGTGCAG”, for which the binding signal is 3320 fluorescence intensity (a.u.). For “GCATAGTGGAAGATCAGTTCGATCAAGATTCAGAGCTTCACGGAGTCACCTAGTGCAG”, the binding signal was 3790 fluorescence intensity (a.u.). As to “CTATAATTTCTGGTTACGGTGGTGACAAGTCATGTGGGCTCGGAGTCACCTAGTGCAG”, the binding signal was 4260 fluorescence intensity (a.u.). In the case of “ACAAGTGGACTCAATGCGCCACGTCGGATGAAATTGGGAGCGGAGTCACCTAGTGCAG” it was 9390 fluorescence intensity (a.u.); in that of “ACATGTACAGCTCAACAGGAATGTCACGTACTCACTCAGCCGGAGTCACCTAGTGCAG”, 3700 fluorescence intensity (a.u.). The value for “CATAAGCGCCACGTTAACTCCACGTGGACCGAAGACTGAGCGGAGTCACCTAGTGCAG” was 14400 fluorescence intensity (a.u.); that for “CATACCGTGTGCGTGGCTGAGTCAATAGCAATCAAGACGGCGGAGTCACCTAGTGCAG” was 4700 fluorescence intensity (a.u.). Turning to “AGATAGTGACACCGTGTGACTAAGTAAAGTGACAGACATGCGGAGTCACCTAGTGCAG”, the binding signal was 4070 fluorescence intensity (a.u.). Consider “CCCATCACCAGCAAAGCTTAGCTGTTGGTTACCCACCTTCCGGAGTCACCTAGTGCAG”, for which the binding signal was 3390 fluorescence intensity (a.u.). On to “AGTTGATCTGGTGCAGATCTTGTGTCACCATATTACACCACGGAGTCACCTAGTGCAG”, for which the binding signal is 3550 fluorescence intensity (a.u.). Take “GCGCGCACAAACAAATGTATCACCAGTAGTAGTACAACCACGGAGTCACCTAGTGCAG”: the binding signal was 3980 fluorescence intensity (a.u.). Consider “TATGGAGTGAAATGTCAGACTCCAAATGACTTATATGATGCGGAGTCACCTAGTGCAG”, for which the binding signal was 64100 fluorescence intensity (a.u.). For “TTGATGATGTGAAGTTTATGAAAACTGTGTCTAGTGTCATCGGAGTCACCTAGTGCAG”, the binding signal is 26900 fluorescence intensity (a.u.). On to “CCTACACTGAAGTTAAGCAGATCTTCCAGGCCTCGTGTTTCGGAGTCACCTAGTGCAG”, for which the binding signal was 43800 fluorescence intensity (a.u.).

Consider “AGCTGACCGCGCGACCGCCACTACCTCCTCGTCATTTCCCCGGAGTCACCTAGTGCAG”, for which the binding signal was 4800 fluorescence intensity (a.u.).

In the case of “ACTTACCACGGATTCCTCCACGACACTAATCCCAACCAGACGGAGTCACCTAGTGCAG”, the binding signal is 3220 fluorescence intensity (a.u.). As to “TGCATTGCATTTGCACTGTCATTTCCTTCCTTTCAGTTTTCGGAGTCACCTAGTGCAG”, the binding signal is 36600 fluorescence intensity (a.u.). In the case of “GGCCTCGGCTTCTCTTCTAAAACCCCACCTCGCCTCGCGTCGGAGTCACCTAGTGCAG” it was 21000 fluorescence intensity (a.u.). Consider “CAGGAGGTGGAGAAGAAGACGTCGGCGTGGAGCGGCGGCGCGGAGTCACCTAGTGCAG”, for which the binding signal was 4640 fluorescence intensity (a.u.).

Consider “AGAGTCGCCGCCACGATGACACACACGCCACGCGCCCCGACGGAGTCACCTAGTGCAG”, for which the binding signal was 4440 fluorescence intensity (a.u.). In the case of “TCGTGTAGTTCTTTGCTCCATCAGAGGATATGTTCATATTCGGAGTCACCTAGTGCAG” it was 3280 fluorescence intensity (a.u.); in that of “TTGATAAGCTATATAGTGGTCAGCGAGTCCTATTGCGTAGCGGAGTCACCTAGTGCAG”, 4010 fluorescence intensity (a.u.); in that of “AAAATAAAATAAAATACTTGTATCATGTCATGACAGCATTCGGAGTCACCTAGTGCAG”, 4190 fluorescence intensity (a.u.). On to “AGCTTCATCTGCAATCCTCCGCTGATCTCTCCCTGTCCGGCGGAGTCACCTAGTGCAG”, for which the binding signal is 3940 fluorescence intensity (a.u.). In the case of “AAATATAATATATGACTGGATGTGACACATCCTAGTACAACGGAGTCACCTAGTGCAG” it was 5840 fluorescence intensity (a.u.). The value for “AGTTGCTTACTCACATAATTGTTTTAAATCAAGGTACTTCCGGAGTCACCTAGTGCAG” was 4720 fluorescence intensity (a.u.). In the case of “ATATTATTGCCGATCTAGAAAATCGACATATCTCTTGTTACGGAGTCACCTAGTGCAG” it was 3380 fluorescence intensity (a.u.); in that of “TATTGCAAAATTTAAAATTATGATGTTATTTTAATATATTCGGAGTCACCTAGTGCAG”, 3320 fluorescence intensity (a.u.); in that of “CGAGAGAACATTCCGTATCGCGCACTAGTAAAGAGTGGGTCGGAGTCACCTAGTGCAG”, 28100 fluorescence intensity (a.u.). Take “TTCGGCTTGGTTAGTTCATGTCAGCAATTTGGGCCCAGAACGGAGTCACCTAGTGCAG”: the binding signal was 3180 fluorescence intensity (a.u.). As to “TTTCTACTGCCACGTAGGTGCCAAGTCAATGCCACGTGTTCGGAGTCACCTAGTGCAG”, the binding signal is 31500 fluorescence intensity (a.u.). As to “CGAGTCCCGCATGCGCCCCACGCGGCGGCTCCAGCACCCGCGGAGTCACCTAGTGCAG”, the binding signal is 3650 fluorescence intensity (a.u.). Take “GTTATATAGGACTGTAAGTTTAGTAATTACACATGTAAGTCGGAGTCACCTAGTGCAG”: the binding signal was 24600 fluorescence intensity (a.u.).

The record behind these values is article PMC7819943, “Rice protein-binding microarrays: a tool to detect cis-acting elements near promoter regions in rice”.
